These results are taken from paper PMC2731243, “Structure and Novel Functional Mechanism of Drosophila SNF in Sex-Lethal Splicing”.

Results are given in words; binding and its absence hold for the method and conditions named. Some binding calls cover weakened binding; strength is not graded here.

For test [1], the target named is Sans-fille (SNF), full-length (Drosophila melanogaster) (UniProt P43332). Briefly: NMR (1H-15N HSQC of SNF at different concentrations); SNF at 0.035-0.39 mM; concentration-dependent line broadening of NH cross-peaks; 50 mM PBS, pH 7.2, 298 K; both purified.
Test [2] has the same target. Briefly: NMR (1H-15N HSQC of SNF at 0.4 mM and 2 mM); SNF raised from 0.4 mM to 2 mM; about half of the NH signals, mainly of RRM1, disappeared; data not shown; 50 mM PBS, pH 7.2, 298 K; both purified.

B1: Sans-fille (SNF), full-length (protein, UniProt P43332 1-216)
chain: MEMLPNQTIYINNLNEKIKKEELKKSLYAIFSQFGQILDIVALKTLKMRGQAFVIFKEIGSASNALRTMQGFPFYDKPMQIAYSKSDSDIVAKIKGTFKERPKKVKPPKPAPGTDEKKDKKKKPSSAENSNPNAQTEQPPNQILFLTNLPEETNEMMLSMLFNQFPGFKEVRLVPNRHDIAFVEFTTELQSNAAKEALQGFKITPTHAMKITFAKK
With B1, the binding result in test [1] and in test [2] was “binds” in each case.
